Drawing on publication PMC5603516, this text covers binding for 3 molecules.

No constants are given. Whether binding was seen depends on the method and setting. For part of these data: Binding seen in cells or lysates may run through a third protein. Some results given as binding are weak or reduced against the parent protein; the word gives no strength. Tags and fused reporters may be left off the sequences shown.

For test [1], the target named is T1, MANF with a C-terminal HA tag (MANF-HA), expressed in PC12 cells (mouse) (UniProt Q9CXI5).
T1 sequence: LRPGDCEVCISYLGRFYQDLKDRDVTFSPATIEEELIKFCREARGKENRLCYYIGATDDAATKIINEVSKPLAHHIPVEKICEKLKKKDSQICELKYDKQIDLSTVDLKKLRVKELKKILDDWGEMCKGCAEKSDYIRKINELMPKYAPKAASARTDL
Nature of the test: co-IP; PC12 cells transfected with MANF-HA and Myc-PIP4k2b; lysate in NP-40 buffer; precipitated with an HA antibody and protein A-agarose; western blotting.

For test [2], the target named is T2, transgenic MANF with HA tag, expressed in the brain of MANF transgenic mice (mouse) (UniProt Q9CXI5).
T2 sequence: T1 sequence
The test can be described thus: co-IP; brain lysate of MANF transgenic mice in NP-40 buffer; antibody and protein A-agarose; western blotting for endogenous PIP4k2b. A general note: Immunoblotting shows a protein as a band on a membrane.

The target in test [3] is T3, GST tagged full length recombinant PIP4k2b (GST-PIP4k2b) (mouse) (UniProt Q80XI4).
T3 sequence: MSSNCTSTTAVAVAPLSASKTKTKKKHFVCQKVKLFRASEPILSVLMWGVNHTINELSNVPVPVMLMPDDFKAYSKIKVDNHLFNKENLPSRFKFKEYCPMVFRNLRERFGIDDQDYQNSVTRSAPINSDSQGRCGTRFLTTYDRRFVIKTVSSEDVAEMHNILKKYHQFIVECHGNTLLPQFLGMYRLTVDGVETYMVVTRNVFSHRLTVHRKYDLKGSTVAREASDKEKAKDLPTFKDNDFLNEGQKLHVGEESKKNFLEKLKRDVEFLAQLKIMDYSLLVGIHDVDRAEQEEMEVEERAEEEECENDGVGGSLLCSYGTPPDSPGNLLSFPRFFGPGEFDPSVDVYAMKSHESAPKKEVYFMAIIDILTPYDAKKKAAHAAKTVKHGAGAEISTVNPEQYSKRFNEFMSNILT
Nature of the test: pull-down; in vitro binding: MANF-His mixed with GST-PIP4k2b (or fragment) on glutathione beads in 500 μl NP40 buffer, 4 °C overnight; washed three times; western blotting; both purified.

B1: Myc tagged PIP4k2b (Myc-PIP4k2b) (enzyme, UniProt Q80XI4 1-416)
chain: T3 sequence
In the case of B1, the binding result in test [1] is “binds”.

B2: phosphatidylinositol 5-phosphate 4-kinase type-2 beta (PIP4k2b), endogenous in mouse brain (enzyme, UniProt Q80XI4 1-416)
chain: T3 sequence
B2: the binding result in test [2] is listed as “binds”.

B3: mouse MANF with a C-terminal His tag (MANF-His) (protein, UniProt Q9CXI5 22-179)
chain: T1 sequence
For the molecule B3, the binding entry in test [3] was “binds”.
